{
  "source": "PubChem BioAssay AID662",
  "about": "(National Center for Advancing Translational Sciences (NCATS), 2007)",
  "note": "Where “and” joins values, the source holds several entries; their conditions need not be identical. Equal values may be shown once. The list shows a part of the results. Further columns of the screen follow, without active or inactive calls. The list favours compounds with an active or inconclusive main result. Words in brackets tell the shape of the fitted curve; partial curves, single points and poor fits give uncertain potencies.",
  "data": [
    {"test": "Cell signaling CRE-BLA (Fsk stim)", "conditions": "CHO CRE-bla reporter (cAMP response element driving beta-lactamase), forskolin EC10, beta-lactamase ratio; measured here: 460 nm blue channel", "outline": "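Titrated compounds plus EC10 NKH 477 on CHO CRE-bla cells, 3 h, 37 °C. CCF4, 2 h RT. Ratio 460/530 nm → AC50.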", "values": [
      {"smiles": "CCN1C(=O)C2(Nc3ccccc3-c3nc4ccccc4n32)c2cc(OC)ccc21", "note": "(centres undefined)", "AC50": "15.8 µM [rising, partial curve]"},
      {"smiles": "Oc1ccccc1NCC(O)Cn1ccc2ccccc21", "note": "(centres undefined)", "AC50": "7.94 µM [falling, partial curve]"},
      {"smiles": "C=CCn1c(SCC(=O)c2ccc(CNC(C)=O)o2)nc2scc(C3CC3)c2c1=O", "AC50": "10 µM [rising, partial curve]"},
      {"smiles": "OCCNc1nc2ccccc2n1-c1ccccc1", "AC50": "0.00398 µM [falling, full curve, poor fit]"},
      {"smiles": "CCOC(=O)c1ccccc1NC(=O)c1ccc(NS(C)(=O)=O)cc1", "AC50": "12.6 µM [rising, partial curve]"},
      {"smiles": "CCC(Sc1nnnn1-c1ccccc1)C(=O)Nc1nc2ccccc2s1", "note": "(centres undefined)", "AC50": "10 µM [falling, partial curve]"},
      {"smiles": "Cc1nc2cncnc2n(Cc2ccc(F)cc2)c1=O", "AC50": "12.6 µM [rising, single point]"},
      {"smiles": "COCCCNC(=O)Cn1cc(C(C)=O)c2ccccc21", "AC50": "0.00794 µM [falling, full curve]"},
      {"smiles": "Cc1sc(NC(=O)c2cccs2)c(C(N)=O)c1C", "AC50": "20 µM [rising, single point]"},
      {"smiles": "COc1cccc(Nc2ncc3nc(-c4cccs4)c(=O)n(CCC#N)c3n2)c1", "AC50": "10 µM [rising, partial curve]"},
      {"smiles": "C=CCN1C(=O)/C(=C2\\SC(N3CCOCC3)=NC2=O)c2cc(Br)ccc21", "AC50": "0.794 µM [rising, full curve]"},
      {"smiles": "COc1ccc(S(=O)(=O)NC2(C(F)(F)F)N=C3SCCN3C2=O)cc1", "note": "(centres undefined)", "AC50": "6.31 µM [rising, partial curve]"},
      {"smiles": "O=C(Nc1ccccc1)c1cc([N+](=O)[O-])ccc1Cl", "AC50": "25.1 µM [falling, partial curve] and 15.8 µM [falling, partial curve, poor fit]"},
      {"smiles": "O=C(Nc1cccnc1)c1noc2c1CCCC2", "AC50": "2 µM [rising, full curve, poor fit]"},
      {"smiles": "O=c1cnc2cnc(OCc3ccccc3)nc2n1CCc1ccccc1", "AC50": "25.1 µM [rising, partial curve]"},
      {"smiles": "CCN1CCCC1CN=Cc1c(O)n(-c2ccccc2)c(=O)c2ccccc12", "note": "(centres undefined)", "AC50": "15.8 µM [rising, single point]"},
      {"smiles": "CCOC(=O)c1sc(=S)n(C)c1N", "AC50": "10 µM [rising, single point]"},
      {"smiles": "Cc1c(O)ccc2c3c(c(=O)oc12)CCC(C)C3", "note": "(centres undefined)", "AC50": "2.51 µM [rising, full curve]"},
      {"smiles": "COc1ccc(C(=O)NCc2cn3c(C)csc3n2)cc1OC", "AC50": "10 µM [rising, partial curve]"}
    ]}
  ]
}
